Results deposited as PubChem BioAssay AID504764 (Drosophila RNAi Screening Center, 2011)
The screen tested about 22,000 reagents; shown is a random part of those with a known target gene and a result. Of all reagents, 403 (1.9%) got an active call. 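Unnormalised raw counts per well; ratio z-scores behind the hit calls and whether each hit raises or lowers signal are not deposited.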 Reagents against one gene are numbered here. A plus sign joins genes that one reagent is predicted to hit. The record does not give: the amount of reagent.

Aim: 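Genome-wide screen for regulators of Notch-driven gene expression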 (primary screen)
Cells: Drosophila Kc167 cells
Reagent: long dsRNA against Drosophila genes
Timing: about 5 days (4 days dsRNA, then 24 h after transfection)
Challenge: transfection of constitutively active membrane-tethered Notch lacking the extracellular domain, read 24 h later
Measurement: 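Firefly luciferase from an E(spl)m3 reporter with active Notch, plus control-promoter and uninduced reporter wells for normalisation; unnormalised counts, duplicate wells a and b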
Reading the numbers: induced reporter light, run 1, well a and induced reporter light, run 1, well b: higher = more light from the Notch target reporter with active Notch; control promoter light, run 1, well a and control promoter light, run 1, well b: higher = more light from the viral control promoter (cell number, transfection, viability); uninduced reporter light, run 1, well a: higher = more light from the Notch target reporter without active Notch
Rule for the call: 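Wells with low control signal or poorly matching duplicates excluded; duplicates averaged; per source plate, z beyond ±2 for induced/control log2 ratio or beyond ±1.8 for induced/uninduced marks a hit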
Calls: active = modifier hit (raised or lowered Notch signal); inactive = not a hit

no.	target gene	reagent	induced reporter light, run 1, well a	induced reporter light, run 1, well b	control promoter light, run 1, well a	control promoter light, run 1, well b	uninduced reporter light, run 1, well a	call
1	Gdi	1	2.24e5	2.26e5	2.29e5	2.07e5	16300	inactive
2	CG34357	1	1.61e5	1.32e5	1.18e5	1.20e5	17410	inactive
3	CG34357	2	47425	39095	27245	29340	7535	inactive
4	CG34357	3	52700	58675	45785	42060	3810	inactive
5	CG31743 + CG34313	1	2.31e5	2.22e5	2.53e5	2.64e5	16300	inactive
6	CG31743 + CG34313	2	1.90e5	1.87e5	1.98e5	2.09e5	14900	inactive
7	CG34241	1	1.77e5	1.81e5	1.35e5	1.54e5	10805	inactive
8	drk	1	1.08e5	87325	33975	36170	10415	inactive
9	Fbp2	1	1.87e5	2.56e5	1.70e5	2.21e5	15685	inactive
10	E(spl)mdelta-HLH	1	1.73e5	1.49e5	1.97e5	1.97e5	14880	inactive
11	Hmgcl	1	55935	58510	56740	53415	4310	inactive
12	Prosalpha6T	1	1.71e5	1.73e5	1.80e5	1.74e5	16110	inactive
13	TkR86C	1	96395	1.05e5	78650	63705	6450	inactive
14	Vps8	1	2.62e5	2.07e5	3.36e5	3.45e5	13030	inactive
15	CG16986	1	1.29e5	1.22e5	1.87e5	1.49e5	7185	inactive
16	BicD	1	1.23e5	1.09e5	1.11e5	1.09e5	9115	inactive
17	CG1801	1	1.55e5	1.28e5	1.60e5	1.55e5	15855	inactive
18	CG30043	1	1.08e5	99140	1.76e5	1.47e5	9850	inactive
19	CG15056	1	82655	76395	92920	67105	9410	inactive
20	Or69a	1	1.84e5	1.32e5	1.82e5	1.58e5	9420	inactive
21	CG6834	1	30825	31250	64240	41035	3660	inactive
22	CG18231	1	1.26e5	1.54e5	1.63e5	1.82e5	9695	inactive

An excerpt of the results above, for reference:
no.	target gene	reagent	induced reporter light, run 1, well a	induced reporter light, run 1, well b	control promoter light, run 1, well a	control promoter light, run 1, well b	uninduced reporter light, run 1, well a	call
5	CG31743 + CG34313	1	2.31e5	2.22e5	2.53e5	2.64e5	16300	inactive
6	CG31743 + CG34313	2	1.90e5	1.87e5	1.98e5	2.09e5	14900	inactive
7	CG34241	1	1.77e5	1.81e5	1.35e5	1.54e5	10805	inactive
8	drk	1	1.08e5	87325	33975	36170	10415	inactive
9	Fbp2	1	1.87e5	2.56e5	1.70e5	2.21e5	15685	inactive
10	E(spl)mdelta-HLH	1	1.73e5	1.49e5	1.97e5	1.97e5	14880	inactive
11	Hmgcl	1	55935	58510	56740	53415	4310	inactive

Continued.
no.	target gene	reagent	induced reporter light, run 1, well a	induced reporter light, run 1, well b	control promoter light, run 1, well a	control promoter light, run 1, well b	uninduced reporter light, run 1, well a	call
23	lncRNA:CR32657	1	1.53e5	1.64e5	2.62e5	3.03e5	11935	inactive
24	CG6763	1	1.80e5	1.81e5	2.40e5	2.28e5	14970	inactive
25	CG12483	1	1.28e5	1.25e5	2.26e5	1.30e5	7690	inactive
26	GCS2beta	1	2.28e5	2.26e5	3.97e5	4.10e5	14805	inactive
27	CG16894	1	76335	86750	98240	73915	5228	inactive
28	CG16894	2						inactive
29	EMC6	1	1.59e5	1.82e5	2.10e5	1.94e5	15705	inactive
30	Pbp95	1	58970	68955	72680	55250	4105	inactive
31	CG32109	1	1.20e5	1.26e5	2.08e5	1.75e5	8125	inactive
32	CG11777	1	2.07e5	1.71e5	1.83e5	2.15e5	14810	inactive
33	MED7	1	46185	44145	47780	37195	3255	inactive
34	tay	1	1.82e5	1.57e5	2.03e5	1.78e5	11965	inactive
35	SMC1	1	1.15e5	1.08e5	1.42e5	1.48e5	9735	inactive
36	CG16743	1	62020	75915	34475	37380	9700	inactive
37	tyn	1	93195	85315	78510	90805	9782	inactive
38	SPE	1	1.63e5	1.91e5	2.48e5	2.22e5	17035	inactive
39	CG5167	1	54865	51085	41595	37315	2578	inactive
40	Cpr11A	1	47260	44775	53250	50220	4300	inactive
41	CG9698	1	1.31e5	1.11e5	1.67e5	1.41e5	10550	inactive
42	CG13227	1	1.28e5	1.36e5	1.27e5	1.27e5	12870	inactive
43	Kal1	1	1.33e5	1.47e5	1.62e5	1.70e5	13250	inactive
44	Msp300	1	1.28e5	1.20e5	1.57e5	1.41e5	8335	inactive
45	Msp300	2	1.10e5	99325	1.66e5	1.39e5	8785	inactive
46	Msp300	3	1.13e5	1.05e5	1.20e5	1.20e5	8685	inactive
47	Msp300	4	86420	79535	1.11e5	1.10e5	6105	inactive
48	Msp300	5	1.55e5	1.19e5	1.60e5	1.58e5	9515	inactive
49	Msp300	6	1.74e5	1.57e5	1.53e5	1.81e5	16378	inactive
50	Msp300	7	76180	72220	53445	62965	4075	inactive
